Reference: publication PMC6406679
No constants are given. Whether binding was seen depends on the method and setting. In cells and extracts the contact can be indirect. Some entries that bind do so weakly or less than the wild type. Values belong to the molecule of their own block, whether it stands above or below them.

Chains of the proteins cited; added tags and fusions are not shown.
UniProt Q96RU7: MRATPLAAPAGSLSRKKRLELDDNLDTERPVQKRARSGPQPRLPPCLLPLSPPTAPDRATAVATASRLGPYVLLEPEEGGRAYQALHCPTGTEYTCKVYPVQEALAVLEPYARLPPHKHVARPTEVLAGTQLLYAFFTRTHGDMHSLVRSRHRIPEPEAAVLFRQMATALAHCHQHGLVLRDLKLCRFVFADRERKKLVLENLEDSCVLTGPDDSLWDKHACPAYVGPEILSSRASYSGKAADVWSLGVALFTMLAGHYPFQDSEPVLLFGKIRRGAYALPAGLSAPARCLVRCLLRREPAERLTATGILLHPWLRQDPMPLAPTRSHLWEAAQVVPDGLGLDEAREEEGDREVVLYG
UniProt Q9NYF8: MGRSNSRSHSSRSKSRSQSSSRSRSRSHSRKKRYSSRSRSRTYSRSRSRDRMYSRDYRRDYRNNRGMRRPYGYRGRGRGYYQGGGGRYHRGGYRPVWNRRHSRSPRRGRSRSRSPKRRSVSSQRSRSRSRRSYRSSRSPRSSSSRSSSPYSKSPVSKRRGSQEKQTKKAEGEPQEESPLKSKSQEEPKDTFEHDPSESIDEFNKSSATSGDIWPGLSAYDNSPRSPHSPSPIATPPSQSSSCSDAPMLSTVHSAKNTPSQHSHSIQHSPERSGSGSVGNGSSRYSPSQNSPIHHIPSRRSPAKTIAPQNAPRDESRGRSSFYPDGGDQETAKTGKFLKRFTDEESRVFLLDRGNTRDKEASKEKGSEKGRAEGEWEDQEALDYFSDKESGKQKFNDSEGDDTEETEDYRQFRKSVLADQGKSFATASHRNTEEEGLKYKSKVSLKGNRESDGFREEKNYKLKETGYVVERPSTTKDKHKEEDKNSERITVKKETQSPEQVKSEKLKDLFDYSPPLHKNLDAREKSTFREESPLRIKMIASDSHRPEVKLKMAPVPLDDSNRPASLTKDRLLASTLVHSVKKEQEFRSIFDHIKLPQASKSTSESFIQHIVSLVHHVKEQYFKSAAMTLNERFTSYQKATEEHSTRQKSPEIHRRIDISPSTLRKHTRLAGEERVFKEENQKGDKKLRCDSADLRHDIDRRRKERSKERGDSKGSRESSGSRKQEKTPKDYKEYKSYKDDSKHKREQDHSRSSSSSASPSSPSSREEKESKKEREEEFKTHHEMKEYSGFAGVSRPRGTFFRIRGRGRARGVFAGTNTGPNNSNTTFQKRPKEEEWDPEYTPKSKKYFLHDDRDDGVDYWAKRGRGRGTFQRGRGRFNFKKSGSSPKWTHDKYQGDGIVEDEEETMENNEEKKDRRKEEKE

Target: Tribbles homolog 3 (TRIB3) (human (endogenous in MDA-MB-231)) (UniProt Q96RU7)
Assay: co-IP; immunoprecipitation with anti-TRIB3 antibody from 231-RR cells, immunoblotting with antibodies of DDX5, BCLAF1 or BNIP1

binding: binds
Molecule: BCL2-associated transcription factor 1 (BCLAF1) (from UniProt Q9NYF8 1-920)

binding: binds
B1: BCL2 interacting protein 1 (BNIP1) (protein, UniProt Q12981 1-228)
chain: MAAPQDVHVRICNQEIVKFDLEVKALIQDIRDCSGPLSALTELNTKVKEKFQQLRHRIQDLEQLAKEQDKESEKQLLLQEVENHKKQMLSNQASWRKANLTCKIAIDNLEKAELLQGGDLLRQRKTTKESLAQTSSTITESLMGISRMMAQQVQQSEEAMQSLVTSSRTILDANEEFKSMSGTIQLGRKLITKYNRRELTDKLLIFLALALFLATVLYIVKKRLFPFL
